The target in experiment [1] is T1, GST-Kaiso (full-length Kaiso, ZBTB33, from pEBG-GST-Kaiso) (human) (UniProt Q86T24).
T1 sequence: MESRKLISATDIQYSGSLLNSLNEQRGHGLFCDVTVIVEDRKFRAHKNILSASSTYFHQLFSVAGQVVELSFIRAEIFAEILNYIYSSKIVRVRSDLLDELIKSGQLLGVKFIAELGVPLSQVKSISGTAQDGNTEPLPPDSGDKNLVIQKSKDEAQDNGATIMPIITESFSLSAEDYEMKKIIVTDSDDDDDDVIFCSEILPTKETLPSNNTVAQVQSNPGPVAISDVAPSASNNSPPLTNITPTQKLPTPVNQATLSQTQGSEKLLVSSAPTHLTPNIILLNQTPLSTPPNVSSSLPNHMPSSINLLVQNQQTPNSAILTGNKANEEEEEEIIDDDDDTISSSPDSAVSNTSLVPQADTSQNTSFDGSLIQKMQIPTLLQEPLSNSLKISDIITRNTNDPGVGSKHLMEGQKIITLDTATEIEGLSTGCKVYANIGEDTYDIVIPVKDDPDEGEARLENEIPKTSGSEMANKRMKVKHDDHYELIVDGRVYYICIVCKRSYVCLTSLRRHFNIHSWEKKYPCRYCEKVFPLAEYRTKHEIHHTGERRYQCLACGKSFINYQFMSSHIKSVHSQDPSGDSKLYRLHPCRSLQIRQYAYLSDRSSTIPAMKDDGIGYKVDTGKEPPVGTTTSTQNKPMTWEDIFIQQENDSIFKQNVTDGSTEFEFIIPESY
Kind of experiment: pull-down.

Chains of the proteins cited; added tags and fusions are not shown.
UniProt P62258: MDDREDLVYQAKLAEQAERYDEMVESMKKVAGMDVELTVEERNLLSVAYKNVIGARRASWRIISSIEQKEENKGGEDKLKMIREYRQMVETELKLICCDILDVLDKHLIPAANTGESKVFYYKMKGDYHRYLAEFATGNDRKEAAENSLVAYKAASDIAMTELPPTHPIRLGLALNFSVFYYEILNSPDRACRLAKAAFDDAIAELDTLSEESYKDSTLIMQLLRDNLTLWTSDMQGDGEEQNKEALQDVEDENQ

In experiment [2] the target is T2, endogenous Kaiso (ZBTB33) (human (endogenous in MGC803)) (UniProt Q86T24).
T2 sequence: T1 sequence
Briefly: co-IP.

Experiment [3] concerns the target T2, endogenous Kaiso (ZBTB33) (human (endogenous in MGC803)). Kind of experiment: co-IP. This is another data set of the same source.

Where two headings read alike, the source gives them in different places. These are yes or no findings as the source states them, for the method shown. Binding seen in cells or lysates may run through a third protein. Some entries that bind do so weakly or less than the wild type. For some assays here: Tags and fused reporters may be left off the sequences shown.

As to “Flag-14-3-3ε (from UniProt P62258 1-255)”, the binding entry in experiment [1] is “binds”.

B1: Flag-14-3-3γ (protein, UniProt P61981 1-247)
chain: MVDREQLVQKARLAEQAERYDDMAAAMKNVTELNEPLSNEERNLLSVAYKNVVGARRSSWRVISSIEQKTSADGNEKKIEMVRAYREKIEKELEAVCQDVLSLLDNYLIKNCSETQYESKVFYLKMKGDYYRYLAEVATGEKRATVVESSEKAYSEAHEISKEHMQPTHPIRLGLALNYSVFYYEIQNAPEQACHLAKTAFDDAIAELDTLNEDSYKDSTLIMQLLRDNLTLWTSDQQDDDGGEGNN
In the case of B1, the binding entry in experiment [1] was “binds”.

B2: endogenous P120ctn (CTNND1) (protein, UniProt O60716 1-968)
chain: MDDSEVESTASILASVKEQEAQFEKLTRALEEERRHVSAQLERVRVSPQDANPLMANGTLTRRHQNGRFVGDADLERQKFSDLKLNGPQDHSHLLYSTIPRMQEPGQIVETYTEEDPEGAMSVVSVETSDDGTTRRTETTVKKVVKTVTTRTVQPVAMGPDGLPVDASSVSNNYIQTLGRDFRKNGNGGPGPYVGQAGTATLPRNFHYPPDGYSRHYEDGYPGGSDNYGSLSRVTRIEERYRPSMEGYRAPSRQDVYGPQPQVRVGGSSVDLHRFHPEPYGLEDDQRSMGYDDLDYGMMSDYGTARRTGTPSDPRRRLRSYEDMIGEEVPSDQYYWAPLAQHERGSLASLDSLRKGGPPPPNWRQPELPEVIAMLGFRLDAVKSNAAAYLQHLCYRNDKVKTDVRKLKGIPVLVGLLDHPKKEVHLGACGALKNISFGRDQDNKIAIKNCDGVPALVRLLRKARDMDLTEVITGTLWNLSSHDSIKMEIVDHALHALTDEVIIPHSGWEREPNEDCKPRHIEWESVLTNTAGCLRNVSSERSEARRKLRECDGLVDALIFIVQAEIGQKDSDSKLVENCVCLLRNLSYQVHREIPQAERYQEAAPNVANNTGPHAASCFGAKKGKDEWFSRGKKPIEDPANDTVDFPKRTSPARGYELLFQPEVVRIYISLLKESKTPAILEASAGAIQNLCAGRWTYGRYIRSALRQEKALSAIADLLTNEHERVVKAASGALRNLAVDARNKELIGKHAIPNLVKNLPGGQQNSSWNFSEDTVISILNTINEVIAENLEAAKKLRETQGIEKLVLINKSGNRSEKEVRAAALVLQTIWGYKELRKPLEKEGWKKSDFQVNLNNASRSQSSHSYDDSTLPLIDRNQKSDKKPDREEIQMSNMGSNTKSLDNNYSTPNERGDHNRTLDRSGDLGDMEPLKGTTPLMQDEGQESLEEELDVLVLDDEGGQVSYPSMQKI
B2: the binding result in experiment [2] and in experiment [3] was “binds” each time.

B3: Flag-14-3-3η (protein, UniProt Q04917 1-246)
chain: MGDREQLLQRARLAEQAERYDDMASAMKAVTELNEPLSNEDRNLLSVAYKNVVGARRSSWRVISSIEQKTMADGNEKKLEKVKAYREKIEKELETVCNDVLSLLDKFLIKNCNDFQYESKVFYLKMKGDYYRYLAEVASGEKKNSVVEASEAAYKEAFEISKEQMQPTHPIRLGLALNFSVFYYEIQNAPEQACLLAKQAFDDAIAELDTLNEDSYKDSTLIMQLLRDNLTLWTSDQQDEEAGEGN
Turning to B3, the binding entry in experiment [1] was “binds weakly”.

(Values after doi:10.1101/2020.03.23.003509.)
